Test results published in US20040002479A1, “Peptide analogues and uses thereof” (priority 2002, published 2004).
For at least one compound, name, drawing or mass did not settle the structure.

Assay: Hydroxyapatite assay (hydroxyapatite adsorption chromatography, bone-targeting potential)
Type: physicochemical
Conditions: corrected K=(retention time-void time)/void; TSK-Gel HA 1000 HPLC column; linear gradient 10 mM to 500 mM sodium phosphate, 0.15 N NaCl, pH 6.8
Description: Hydroxyapatite is the principal mineral component of bone. Hydroxyapatite adsorption chromatography is used as an assay to evaluate the bone-targeting potential of both individual bone-targeting moieties (“monomers”) and of pharmaceuticals incorporating bone-targeting groups.
Method: The rentention time of a test compound is measured using a linear gradient from 10 mM sodium phosphate, 0.15 N NaCl, pH=6.8 to 500 mM sodium phosphate, 0.15 N NaCl, […] on a TSK-Gel HA 1000 high pressure liquid chromatography column (7.5 mm×75 mm). The rentention time of the compound is expressed in terms of K=(retention time-void time)/void. This K value is corrected using two reference compounds to correct from inter-column and inter-system variation to obtain a K′ value.
Reference Compounds: K′ values were determined for known bone targeted compounds, the bisphosphonate, alendronate and tetracycline.

CN(C)[C@@H]1C(O)=C(C(N)=O)C(=O)[C@@]2(O)C(O)=C3C(=O)c4c(O)cccc4[C@@](C)(O)[C@H]3C[C@@H]12 [tetracycline]
K′ value: 2.0
